Data reported in the supplement of paper PMC3334620.
Over roughly 33,000 sequences, “E-score (-0.5 to 0.5)” has its median near -0.0059; the highest 2% begin near 0.26. Some of the results follow.

These sequences were tested against T1, Cin5 (UniProt P40917) (assay: PBM E-score (8-mer binding enrichment) (E-score (-0.5 to 0.5)); higher = stronger / more preferred TF binding). Conditions: protein concentration: 100 nM; construct: GST-full length.
T1 sequence: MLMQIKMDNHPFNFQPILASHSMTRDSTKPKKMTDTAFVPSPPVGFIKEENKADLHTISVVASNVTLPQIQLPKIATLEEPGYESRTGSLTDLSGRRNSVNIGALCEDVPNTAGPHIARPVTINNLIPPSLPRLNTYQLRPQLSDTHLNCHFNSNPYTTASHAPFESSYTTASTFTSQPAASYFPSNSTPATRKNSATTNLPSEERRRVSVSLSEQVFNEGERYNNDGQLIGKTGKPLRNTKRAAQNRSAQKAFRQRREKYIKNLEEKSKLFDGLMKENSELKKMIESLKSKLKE
In short: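 Yeast transcription factors, full-length or as DNA-binding domains, were expressed with a GST tag using PURExpress in vitro transcription/translation. At about 100-200 nM they were applied to universal all-10-mer Agilent arrays, double-stranded by primer extension on fresh or once-stripped slides. Fluorescent anti-GST detected bound protein, and masliner normalised the scans. E-scores for ungapped eight-base words, pooled with reverse complements, came from the Universal PBM Analysis Suite.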

Sequence	PBM E-score
ACCATATA	0.223
CGGATAAG	0.0926
AATCTCGA	0.14
CGTGGCCC	-0.289
CGTACAAC	0.0268
ATGCACGC	0.00415
CAAGAAAC	0.218
ATGCGGGC	0.0795
CGGTGTTA	-0.0862
ACATCAGT	0.166
ACATTTCG	0.0106
GTCCTGCA	-0.16
ATGGTCCG	0.0526
CCCCCCGA	-0.384
GAAAGTTA	0.133
AATAAACT	0.09
CATGAGCG	0.124
GCCCTAGA	-0.32
GACCTATC	-0.0346
AAGCACGC	0.0796
ATGAGTAG	0.2
ACGTTGTC	-0.0279
CGAGACAG	0.0302
ACCAGGCT	-0.134
GGTTGGAA	0.0833

Sequence	PBM E-score
TGCCCACA	-0.174
GGCCACTA	-0.0458
CAACCCAA	-0.0203
GCCCCGTA	-0.0881
TCCTACAA	0.0683
AGTCGCAG	-0.154
ATTCCATA	0.194
AAACTCAG	-0.0077
CGCCCGAA	-0.0087
CCACCATC	-0.0751
CCTCAGTC	-0.114
CTTCAACA	0.16
GATGAAAA	0.0605
AGGGCGCG	-0.168
AGCAATTC	0.0771
AAATGCTC	0.093
CTTCTTAA	0.0253
TGGGCTAA	0.0236
AACGGTCG	0.00792
CCTCGGCG	0.152
AGGAGCCC	-0.136
AAGTCGAC	0.184
AAAACACA	0.00626
AAAAAAAG	0.0425
CAACGGTG	-0.229

Sequence	PBM E-score
ATGCAGCA	0.0223
CACCGCGA	-0.103
ACGTCAAT	0.0317
AAAATTTC	-0.0551
ACGGGGTG	0.0866
AGATTGGG	0.175
CCTTCACC	-0.195
TGAATTAA	0.231
AGGAATTC	-0.0774
AAAACGCT	-0.12
CAACTATA	-0.00786
ACCGTCCA	0.0127
CGACGGCC	-0.0787
ACGAGCCG	-0.0609
ACAAGCTA	-0.0521
ACTAGGTC	0.0478
GATCGCCC	-0.0277
ATTACCCA	0.213
CGATTTAC	0.0397
AATGTTTA	-0.00999
TCTTATCA	0.196
ATCCCCAA	0.231
CGACTATC	-0.0747
ATAGAAAT	0.206
AGTGATTA	0.275

Sequence	PBM E-score
AATCTGAC	0.104
CCCTCCGA	-0.138
GGCTCTCA	-0.265
CATACTTA	0.0207
CAAGTCTA	-0.202
TAGGGCGA	-0.0105
CCTGGTCC	-0.0835
TAATGAGA	0.0551
CCTATTCG	-0.0618
CTCTGATA	0.00455
CGCGCAGC	-0.169
AAGATCAG	-0.103
ACTCGGTA	0.00378
TAGCCCTA	-0.129
CTGTGTCC	-0.119
CTTTTCTC	-0.025
ACTCTAGC	-0.211
AAAGTCGA	-0.024
GAGCACGC	-0.0491
AATCATAC	0.206
AACACGCT	0.0254
ACCGTCTA	-0.157
GTCCCGAA	-0.145
AAGACACA	-0.0535
AAATATCT	0.155

An excerpt of these results, with bars between the fields:
Sequence | PBM E-score
CCTGGTCC | -0.0835
TAATGAGA | 0.0551
CCTATTCG | -0.0618
CTCTGATA | 0.00455
CGCGCAGC | -0.169
AAGATCAG | -0.103

Additional records follow:

Sequence	PBM E-score
CAGCATGA	-0.0456
ACCGGGTA	-0.0534
GCTCACAA	0.03
ATATATAT	0.146
ATATCAAC	0.144
CTAGGCTC	-0.367
ACCGCGTG	-0.186
CGTCCAAC	-0.11
CGATGTCA	-0.00486
ACGTCTCT	-0.0284
AACGCTAG	-0.225
CCATCATC	0.0863
AGAACGAG	0.0109
TCCAGGCA	-0.0563
GTGCCCAC	-0.128
CCAAGTAA	0.145
CTTTTAGA	-0.0224
GACGAGTA	0.0712
AGAGTTAT	0.217
GACACAGC	-0.0691
CCCCCGCC	-0.349
AAACCGGA	0.101
CCGTCCTC	-0.197
AACCTTTA	-0.0683
CTTACGGC	0.0357

Sequence	PBM E-score
CTGGCGCA	-0.194
GCTTTGCA	-0.21
AACACCCC	-0.128
CACCCGCC	0.152
GAAAAACA	-0.0228
CGGGAAGC	0.00431
GGAACTAC	-0.00634
ACCTCAAA	0.027
CCCTGGCA	-0.229
TAGGAGGA	-0.142
ACTTACGA	0.207
AGGGTGGA	-0.0449
ATAGTATG	0.169
ATAACCTC	0.00091
CAGTGTAG	0.0229
GCTCCAGC	-0.0872
AGTCGTAA	0.121
GCCACGGC	-0.212
GGGAGCAA	-0.22
GAAGCTCC	-0.135
CCCAAGCA	0.0351
CATACAGC	-0.136
GCGCGTGA	-0.0444
AAAACCAC	-0.0216
GGGTACAC	-0.194

Sequence	PBM E-score
CTCCATAC	0.0259
ACACTAGG	0.162
GACGCTTA	-0.059
GGCACGGA	-0.0181
CCTCTCTA	-0.287
CTCTTGTA	-0.0977
GGATAATA	0.169
AAGGTGAC	-0.184
AAAGATTC	-0.00486
CTAACATA	0.204
GTCGCAAC	0.0922
CACAAAGA	0.0063
GGCTTCGA	-0.027
ACGTAGAT	0.205
GATTCCAC	0.0898
AGGACCAC	-0.137
GGCGGGAC	-0.0609
ACCTCGTC	0.0333
CGCGCCAG	-0.179
GTCCTTTA	-0.0791
GTGCCTCA	-0.274
GGTGGAAA	-0.0181
GCTAAAGA	0.102
TCTGATAA	0.158
TATCCAAA	0.134

Sequence	PBM E-score
GGTAAAAA	0.083
ACTGTCGC	0.0215
AAGGACAC	-0.0294
CACGCGGC	-0.0526
CAATACTC	0.227
ATGAGCTC	-0.0424
CGATGGGC	0.0315
CTAGAAAA	0.0407
CTCTGTTC	0.0727
AAAATTGG	0.122
GGGCTCGA	-0.151
CCGTTGTC	0.131
ACGGCTAT	-0.19
CACGGCGC	-0.00846
GGTGGTTA	0.136
GAATTAAC	0.0843
CAGTAGAC	-0.0308
CTGGTTGC	0.112
AACACAGA	0.123
CCCCCGAA	-0.374
AGCCACTG	0.0225
CATCCTAC	-0.0387
GAATCTAA	0.0968
GATAGGGC	0.00421
GCGATTTA	0.109

Sequence	PBM E-score
AGCTGGCC	-0.0303
AAAGGAAT	0.102
GAGCCTCA	-0.163
GGTTGCAC	-0.0326
GCCGGAAA	0.0144
TAGTCACA	0.0468
CCCGTATC	-0.0502
CTAAGGAG	-0.132
AATCACTA	0.122
ATTGGGGA	0.00734
CATGAGCC	-0.21
CGCAGTAG	-0.0567
AGCCTTCA	-0.143
CTAGTGAC	-0.0966
TGCAGCCA	0.0515
CTCGCCCA	-0.0749
TAAAGCAA	0.169
CATTGCAA	-0.0643
AATGCCGT	0.229
